The target in assay [1] is T1, Flag-tagged Lsm1 (S. cerevisiae) (UniProt P47017).
T1 sequence: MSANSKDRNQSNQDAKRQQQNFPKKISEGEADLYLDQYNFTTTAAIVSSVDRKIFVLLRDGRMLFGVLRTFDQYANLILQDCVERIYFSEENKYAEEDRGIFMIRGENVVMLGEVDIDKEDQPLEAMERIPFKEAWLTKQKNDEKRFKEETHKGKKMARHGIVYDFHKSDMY
As to the kind of experiment: co-IP; similar co-immunoprecipitation from chromatin of strains expressing Flag-tagged Lsm1 or Flag-tagged Lsm8; Med1 and Med4 detected.

The chains behind the UniProt entries cited, without tags or fusion partners.
UniProt Q12321: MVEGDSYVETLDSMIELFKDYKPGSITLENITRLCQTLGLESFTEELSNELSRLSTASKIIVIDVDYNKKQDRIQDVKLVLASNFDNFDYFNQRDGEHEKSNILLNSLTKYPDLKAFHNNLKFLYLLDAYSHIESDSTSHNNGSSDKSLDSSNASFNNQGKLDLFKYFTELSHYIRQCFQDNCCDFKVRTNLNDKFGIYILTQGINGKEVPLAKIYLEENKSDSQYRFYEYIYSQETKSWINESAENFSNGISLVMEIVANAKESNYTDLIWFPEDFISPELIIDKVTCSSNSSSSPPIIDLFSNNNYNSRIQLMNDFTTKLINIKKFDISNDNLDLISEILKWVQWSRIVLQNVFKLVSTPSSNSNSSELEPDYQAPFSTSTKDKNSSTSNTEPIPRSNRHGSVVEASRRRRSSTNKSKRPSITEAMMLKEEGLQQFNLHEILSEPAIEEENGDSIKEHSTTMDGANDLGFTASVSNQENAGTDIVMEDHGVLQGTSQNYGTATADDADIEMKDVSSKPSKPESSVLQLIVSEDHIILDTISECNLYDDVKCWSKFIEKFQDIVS
UniProt Q12343: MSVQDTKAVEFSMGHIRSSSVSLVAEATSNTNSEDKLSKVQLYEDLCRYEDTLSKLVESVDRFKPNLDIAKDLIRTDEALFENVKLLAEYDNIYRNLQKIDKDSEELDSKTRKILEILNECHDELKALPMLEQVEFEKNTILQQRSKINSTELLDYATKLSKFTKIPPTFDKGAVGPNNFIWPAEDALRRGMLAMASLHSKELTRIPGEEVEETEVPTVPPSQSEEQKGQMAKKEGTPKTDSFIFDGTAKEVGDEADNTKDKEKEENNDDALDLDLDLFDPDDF

The target of assay [2] is T2, Flag-tagged Lsm8 (S. cerevisiae) (UniProt P47093).
T2 sequence: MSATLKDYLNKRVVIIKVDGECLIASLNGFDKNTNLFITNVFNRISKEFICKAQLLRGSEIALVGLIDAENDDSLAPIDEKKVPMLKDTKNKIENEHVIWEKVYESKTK
The description is as above.

Assay [3] deals with T3, TAP-tagged Lsm3 (S. cerevisiae) (UniProt P57743).
T3 sequence: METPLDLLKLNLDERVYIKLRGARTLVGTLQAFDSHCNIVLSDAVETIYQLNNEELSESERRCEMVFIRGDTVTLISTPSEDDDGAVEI
As to the kind of experiment: co-IP; chromatin extract (released with 0.5 M ammonium sulfate) of the LSM3-TAP strain; anti-Protein A antibody on Protein A/G magnetic beads, 4 C overnight; washed with buffer X (40 mM HEPES pH 7.6, 10% glycerol, 150 mM KOAc, 1 mM DTT); blots with anti-Protein A and anti-Med1; untagged strain as negative control; two independent extracts.

Results are given in words; binding and its absence hold for the method and conditions named. Binding seen in cells or lysates may run through a third protein. Some entries that bind do so weakly or less than the wild type. Tags and fused reporters may be left off the sequences shown.

Among the data in article PMC11194063 are binding values, retold here.

Turning to “Med1 Mediator subunit (from UniProt Q12321 1-566)”, the binding result in assay [1], in assay [2] and in assay [3] was “binds” in each case.

For “Med4 Mediator subunit (from UniProt Q12343 1-284)”, the binding result in assay [1] and in assay [2] was “binds” throughout.
